Marks after values point to notes of the source that are not given here.
Test system: Salinispora tropica NPS021184
Assay: Production of Salinosporamide A and analogs in shake flask or tube culture; titers by HPLC of EtOAc extract
Details: for Max Titers: Ex.1 Table 2; for Max Avg Titer / relative to Sal A (%): Ex.2 Table 3; for Max Avg Titer: 52 μg/L in production medium
Experimental: Seed cultures were prepared by inoculating frozen stock of Salinispora tropica NPS021184 into seed medium.
(§1) The first seed cultures (either 10 mL medium in a 50-mL tube or 100 mL medium in a 500-mL Erlenmeyer flask) were incubated for 3 to 4 days before inoculating into the second seed media with the same composition as the first seed cultures. The second seed cultures (100 mL medium in a 500-mL Erlenmeyer flask) were incubated for two days before inoculating into the production medium (100 mL medium in a 500-mL Erlenmeyer flask).
The chemically defined salt formulation included: […]
(§2) 3.5 mL of the fermentation culture was mixed with equal volume of EtOAc in an extraction tube to extract the various metabolites from the production culture. The mixture was shaken on a shaker for one hr. An aliquot of the extract (1 mL) was removed and dried under a stream of nitrogen. The dried extract was stored at −20° C. freezer before HPLC analysis. The dried extract was resuspended in 320 μL DMSO and injected into HPLC using the 00TF14 method for analysis.
The production of Salinosporamide A, NPI-0047 and NPI-2065 was monitored by Agilent HP1100 HPLC using an ACE C-18 reversed-phase column (4.6×150 mm), and solvent system consisting of water (0.01% TFA) as solvent A and acetonitrile (0.01% TFA) as solvent B. The elution was started at 100% solvent A for 1 min, 100% solvent A to 35% solvent A gradient in 7 min, held at 35% solvent A for 11 min, 35% solvent A to 100% solvent B in 8 min and held at 100% solvent B for 9 min at a flow rate of 1.5 mL/min with the detector wavelength set at 210 nm and column temperature 35° C.
The first seed cultures (either 10 mL medium in a 50-mL tube or 100 ml medium in a 500-ml Erlenmeyer flask) were incubated for 3 to 4 days before inoculating into the second seed media with the same composition as the first seed cultures. The second seed cultures (100 mL medium in a 500-mL Erlenmeyer flask) were incubated for two days before inoculating into the production medium (100 mL medium in a 500-mL Erlenmeyer flask).
as §1, with “in a 50-ml tube or” for “in a 50-mL tube or”, “inoculating into production medium” for “inoculating into the production medium”
as §2, with “shaken” for “shaken on a shaker”, “1” for “one”, “[…]” for “μL”, “TFS7” for “00TF14”
The production of Salinosporamide A, NPI-0047 and NPI-2065 was monitored by Agilent HP1100 HPLC using an ACE C-18 reversed-phase column (4.6×150 mm), and isocratic solvent system consisting of 67% water (0.01% TFA) and 33% acetonitrile (0.01% TFA). The flow rate was 1.5 mL/min for 15 min with the detector wavelength set at 210 nm and column temperature 35° C.
3.5 mL of the fermentation culture was mixed with equal volume of EtOAc in an extraction tube to extract the various metabolites from the production culture. The mixture was shaken on the shaker for 1 hr. An aliquot of the extract (1 mL) was removed and dried under a stream of nitrogen. The dried extract was stored at −20° C. freezer before HPLC analysis. The dried extract was resuspended in 320 μL DMSO and injected into HPLC using the TFS7 method for analysis. […]

With C[C@@]12OC(=O)[C@]1([C@@H](O)[C@@H]1C=CCCC1)NC(=O)[C@H]2CCCl [NPI-2065] the “Titers (maximum concentrations)” value (BAS.PD + 0.1% Valeric acid) was 2.9 mg/L, the “Maximum Titer” value (Ex.1 Table 1, shake flask, 104 μg/L CoCl2·6H2O in production medium) was 6.1 mg/L and the “Maximum Titer” value (Ex.1 Table 1, shake flask, 1.04 mg/L CoCl2·6H2O in production medium) was 6.8 mg/L. The “Maximum Titer” value (Ex.1 Table 1, shake flask, 10.4 mg/L CoCl2·6H2O in production medium) was 5.3 mg/L, the “Maximum Titer” value (Ex.1 Table 1, shake flask, no CoCl2·6H2O addition to production medium) was 7.7 mg/L and the “Max Titers” value (2.6 μg/L CoCl2·6H2O in production medium) was 6.1 mg/L. The “Max Titers” value (5.2 μg/L CoCl2·6H2O in production medium) was 6.5 mg/L, the “Max Titers” value (6.5 μg/L CoCl2·6H2O in production medium) was 6.2 mg/L and the “Max Titers” value (13 μg/L CoCl2·6H2O in production medium) was 6.5 mg/L. For the same compound, the “Max Titers” value (26 μg/L CoCl2·6H2O in production medium) was 6.8 mg/L, the “Max Titers” value (52 μg/L CoCl2·6H2O in production medium) was 6.3 mg/L and the “Max Titers” value (104 μg/L CoCl2·6H2O in production medium) was 6.5 mg/L. For the same compound, the “Max Titers” value (208 μg/L CoCl2·6H2O in production medium) was 6.2 mg/L, the “Max Titers” value (416 μg/L CoCl2·6H2O in production medium) was 5.6 mg/L and the “Max Titers” value (shake flask, control, no CoCl2·6H2O in production medium) was 6.6 mg/L. For the same compound, the “Max Avg Titer” value (CoCl2·6H2O in seed medium 0 μg/L) was 6.5 mg/L, the “Max Avg Titer” value (CoCl2·6H2O in seed medium 2.6 μg/L) was 6.6 mg/L and the “Max Avg Titer” value (CoCl2·6H2O in seed medium 5.2 μg/L) was 6.8 mg/L. The “Max Avg Titer” value (CoCl2·6H2O in seed medium 13 μg/L) was 6.9 mg/L, the “Max Avg Titer” value (CoCl2·6H2O in seed medium 26 μg/L) was 8.4 mg/L and the “Max Avg Titer” value (CoCl2·6H2O in seed medium 52 μg/L) was 7.9 mg/L. The “Max Avg Titer” value (CoCl2·6H2O in seed medium 104 μg/L) was 7.7 mg/L, the “Max Avg Titer” value (CoCl2·6H2O in seed medium 208 μg/L) was 8.1 mg/L and the “Max Avg Titer” value (CoCl2·6H2O in seed medium 416 μg/L) was 6.9 mg/L. The “relative to Sal A (%)” value (seed CoCl2·6H2O 0 μg/L) was 2.2%, the “relative to Sal A (%)” value (seed CoCl2·6H2O 2.6 μg/L) was 2.2% and the “relative to Sal A (%)” value (seed CoCl2·6H2O 5.2 μg/L) was 2.2%. For the same compound, the “relative to Sal A (%)” value (seed CoCl2·6H2O 13 μg/L) was 2.3%, the “relative to Sal A (%)” value (seed CoCl2·6H2O 26 μg/L) was 2.3% and the “relative to Sal A (%)” value (seed CoCl2·6H2O 52 μg/L) was 2.4%. The “relative to Sal A (%)” value (seed CoCl2·6H2O 104 μg/L) was 2.2%, the “relative to Sal A (%)” value (seed CoCl2·6H2O 208 μg/L) was 2.2% and the “relative to Sal A (%)” value (seed CoCl2·6H2O 416 μg/L) was 2.2%. For the same compound, the Titer (Ex.4 Table 9, Chemically Defined Salt Formulation + Na2SO4 + 52 μg/L CoCl2·6H2O (Medium Lo.Maz, low chloride)) was 3.4 mg/L, the Titer (Ex.4 Table 9, Chemically Defined Salt Formulation + NaCl + 52 μg/L CoCl2·6H2O, average of two experiments) was 5.2* mg/L and the Titer (Ex.4 Table 9, production medium with INSTANT OCEAN) was 7.8 mg/L. For the same compound, the Titer (Ex.4 Table 9, production medium: Chemically Defined Salt Formulation + NaCl) was 7.7 mg/L, the Titer (Ex.5 Table 12, seed Lo.BNA, production SHY.KcMC, 16 mM sodium by ICP-MS, culture age 3 days) was 0.9 mg/L and the Titer (Ex.5 Table 12, seed Lo.BNA, production SHY.KcMC, 16 mM sodium by ICP-MS, culture age 4 days) was 2.5 mg/L. For the same compound, the Titer (Ex.5 Table 12, seed Lo.BNA, production SHY.KcMC, 16 mM sodium by ICP-MS, culture age 5 days) was 3.5 mg/L, the Titer (Ex.5 Table 12, seed Lo.BNA, production SHY.KcMC, 16 mM sodium by ICP-MS, culture age 6 days) was 4.0 mg/L and the Titers (Ex.6 Table 13, washed cells, seed A1.Kc4C, production SHY.KcMC, 11 mM sodium by ICP-MS, culture age 3 days) was 0.7 mg/L. It also gave a Titers (Ex.6 Table 13, washed cells, seed A1.Kc4C, production SHY.KcMC, 11 mM sodium by ICP-MS, culture age 4 days) of 1.0 mg/L, a Titers (Ex.6 Table 13, washed cells, seed A1.Kc4C, production SHY.KcMC, 11 mM sodium by ICP-MS, culture age 5 days) of 1.8 mg/L and a Titers (Ex.6 Table 13, washed cells, seed A1.Kc4C, production SHY.KcMC, 11 mM sodium by ICP-MS, culture age 6 days) of 2.1 mg/L. For the same compound, the Titers (Ex.8 Table 16, seed SHY.KCD, production SHY.KcMC, 11 mM sodium by ICP-MS, culture age 3 days) was 0.4 mg/L, the Titers (Ex.8 Table 16, seed SHY.KCD, production SHY.KcMC, 11 mM sodium by ICP-MS, culture age 4 days) was 2.4 mg/L and the Titers (Ex.8 Table 16, seed SHY.KCD, production SHY.KcMC, 11 mM sodium by ICP-MS, culture age 5 days) was 2.8 mg/L. The Titers (Ex.8 Table 16, seed SHY.KCD, production SHY.KcMC, 11 mM sodium by ICP-MS, culture age 6 days) was 3.7 mg/L, the Titers (INSTANT OCEAN-based media, day 4, condition 1 (Control): seed no cobalt addition, production no cobalt addition) was 7.3 mg/L and the Titers (INSTANT OCEAN-based media, day 4, condition 2: seed no cobalt addition, production +13 μg/L CoCl2•6H2O) was 6.9 mg/L. For the same compound, the Titers (INSTANT OCEAN-based media, day 4, condition 3: seed no cobalt addition, production +52 μg/L CoCl2•6H2O) was 5.7 mg/L, the Titers (INSTANT OCEAN-based media, day 4, condition 4: seed no cobalt addition, production +208 μg/L CoCl2•6H2O) was 6.0 mg/L and the Titers (INSTANT OCEAN-based media, day 4, condition 5: seed +52 μg/L CoCl2•6H2O, production no cobalt addition) was 6.2 mg/L. It also gave a Titers (INSTANT OCEAN-based media, day 4, condition 6: seed +52 μg/L, production +13 μg/L CoCl2•6H2O) of 5.8 mg/L, a Titers (INSTANT OCEAN-based media, day 4, condition 7: seed +52 μg/L, production +52 μg/L CoCl2•6H2O) of 5.7 mg/L and a Titers (INSTANT OCEAN-based media, day 4, condition 8: seed +5 μg/L, production +208 μg/L CoCl2•6H2O) of 5.9 mg/L. The Titers (INSTANT OCEAN-based media, day 4, condition 9: seed +208 μg/L CoCl2•6H2O, production no cobalt addition) was 6.4 mg/L, the Titers (INSTANT OCEAN-based media, day 4, condition 10: seed +208 μg/L, production +13 μg/L CoCl2•6H2O) was 6.1 mg/L and the Titers (INSTANT OCEAN-based media, day 4, condition 11: seed +208 μg/L, production +52 μg/L CoCl2•6H2O) was 6.5 mg/L. For the same compound, the Titers (INSTANT OCEAN-based media, day 4, condition 12: seed +208 μg/L, production +208 μg/L CoCl2•6H2O) was 6.1 mg/L, the “Maximum Titer” value (Instant Ocean based media, 0x Vitamin B12: seed 0, production 0) was 6.3 mg/L and the “Maximum Titer” value (Instant Ocean based media, 1x Vitamin B12: seed and production 0.296 mg/L (0.22 μM)) was 4.9 mg/L. The “Maximum Titer” value (Instant Ocean based media, 1x vitamin B12P: seed 0, production 0.296 mg/L (0.22 μM) Vitamin B12) was 4.4 mg/L, the “Maximum Titer” value (Instant Ocean based media, 4x Vitamin B12: seed and production 1.185 mg/L (0.88 μM)) was 5.4 mg/L and the “Maximum Titer” value (Instant Ocean based media, 10x Vitamin B12: seed and production 2.96 mg/L (2.2 μM)) was 4.9 mg/L. For the same compound, the “Titers (maximum concentrations)” value (LoCl.PD + 0.1% Valeric acid) was 1.5 mg/L, the Titer (NPS21184, production medium with salt formulation, NaCl 0 g/L) was 0 mg/L and the Titer (NPS21184, production medium with salt formulation, NaCl 5 g/L) was 0 mg/L. The Titer (NPS21184, production medium with salt formulation, NaCl 10 g/L) was 3.9 mg/L, the Titer (NPS21184, production medium with salt formulation, NaCl 15 g/L) was 6.2 mg/L and the Titer (NPS21184, production medium with salt formulation, NaCl 20 g/L) was 6.2 mg/L. The Titer (NPS21184, production medium with salt formulation, NaCl 24 g/L) was 6.2 mg/L, the Titer (NPS21184, production medium with salt formulation, NaCl 30 g/L) was 4.2 mg/L and the “Maximum Titer” value (defined salt formulation based media, 1× CoCl2•6H2O: seed and production 52 μ/L (0.22 μM) CoCl2•6H2O) was 6.6 mg/L. For the same compound, the “Maximum Titer” value (defined salt formulation based media, 1× vitamin B12: seed and production 0.296 mg/L (0.22 μM) Vitamin B12) was 7.2 mg/L, the “Maximum Titer” value (defined salt formulation based media, Control: no vitamin B12 or cobalt supplement) was 5.6 mg/L and the “Titers (maximum concentrations)” value (low chloride production medium LoCl.PD, no valeric acid) was 0.99 mg/L. The “Titers (maximum concentrations)” value (saline production medium BAS.PD, no valeric acid) was 5.5 mg/L.
